According to the supplement of paper PMC8728848:
This is one part of the list.

Experiments:
Assay in all cases: glycan array binding signal (z-score within array); higher = stronger binding
Details in all cases: glycan notation: IUPAC condensed, linker removed
[1] = target: Fuc(a1-2)Gal(b1-4)GlcNAc(b1-3)Gal(b1-4)GlcNAc(b1-2)Man(a1-3)[Fuc(a1-2)Gal(b1-4)GlcNAc(b1-3)Gal(b1-4)GlcNAc(b1-2)Man(a1-6)]Man(b1-4)GlcNAc(b1-4)GlcNAc
Method in brief: (§1)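 Arrays were curated from the Consortium for Functional Glycomics database, 3228 in total, and kept only where the protein sequence was available. Binding is expressed as a within-array Z-score. This score was averaged across arrays of the same protein sequence at different concentrations or buffers and across linkers, and negative values can be read as non-binding.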

[2] = target: Fuc(a1-2)Gal(b1-4)GlcNAc(b1-3)Gal(b1-4)GlcNAc(b1-3)Gal(b1-4)GlcNAc
Method in brief: as §1

[3] = target: Fuc(a1-2)Gal(b1-4)GlcNAc(b1-3)GalNAc
Method in brief: as §1

[4] = target: Fuc(a1-2)Gal(b1-4)GlcNAc(b1-3)[Fuc(a1-2)Gal(b1-4)GlcNAc(b1-6)]GalNAc
Method in brief: as §1

[5] = target: Fuc(a1-2)Gal(b1-4)GlcNAc(b1-3)[Fuc(a1-3)[Gal(b1-4)]GlcNAc(b1-6)]Gal(b1-4)Glc
Method in brief: as §1

[6] = target: Fuc(a1-2)Gal(b1-4)GlcNAc(b1-6)GalNAc
Method in brief: as §1

[7] = target: Fuc(a1-2)Gal(b1-4)GlcNAc6S
Method in brief: as §1

[8] = target: Fuc(a1-2)Gal(b1-4)[Fuc(a1-3)]GlcNAc
Method in brief: as §1

[9] = target: Fuc(a1-2)Gal(b1-4)[Fuc(a1-3)]GlcNAc(b1-2)Man(a1-3)[Fuc(a1-2)Gal(b1-4)[Fuc(a1-3)]GlcNAc(b1-2)Man(a1-6)]Man(b1-4)GlcNAc(b1-4)[Fuc(a1-6)]GlcNAc
Method in brief: as §1

[10] = target: Fuc(a1-2)Gal(b1-4)[Fuc(a1-3)]GlcNAc(b1-2)[Fuc(a1-2)Gal(b1-4)[Fuc(a1-3)]GlcNAc(b1-4)]Man(a1-3)[Fuc(a1-2)Gal(b1-4)[Fuc(a1-3)]GlcNAc(b1-2)Man(a1-6)]Man(b1-4)GlcNAc(b1-4)GlcNAc
Method in brief: as §1

[11] = target: Fuc(a1-2)Gal(b1-4)[Fuc(a1-3)]GlcNAc(b1-3)Gal(b1-4)[Fuc(a1-3)]GlcNAc
Method in brief: as §1

[12] = target: Fuc(a1-2)Gal(b1-4)[Fuc(a1-3)]GlcNAc(b1-3)Gal(b1-4)[Fuc(a1-3)]GlcNAc(b1-3)Gal(b1-4)[Fuc(a1-3)]GlcNAc
Method in brief: as §1

[13] = target: Fuc(a1-2)Gal(b1-4)[Fuc(a1-3)]GlcNAc(b1-3)GalNAc
Method in brief: as §1

[14] = target: Fuc(a1-2)Gal(b1-4)[Fuc(a1-3)]GlcNAc(b1-3)[Neu5Ac(a2-6)Gal(b1-4)GlcNAc(b1-6)]Gal(b1-4)Glc
Method in brief: as §1

[15] = target: Fuc(a1-2)Gal3S(b1-4)GlcNAc
Method in brief: as §1

[16] = target: Fuc(a1-2)Gal6S(b1-3)GlcNAc
Method in brief: as §1

[17] = target: Fuc(a1-2)Gal6S(b1-3)GlcNAc6S
Method in brief: as §1

Fuc(a1-2)Gal6S(b1-4)Glc = target: Fuc(a1-2)Gal6S(b1-4)Glc
Method in brief: as §1

[18] = target: Fuc(a1-2)Gal6S(b1-4)Glc6S
Method in brief: as §1

Fuc(a1-2)[Gal(a1-3)]Gal = target: Fuc(a1-2)[Gal(a1-3)]Gal
Method in brief: as §1

[19] = target: Fuc(a1-2)[Gal(a1-3)]Gal(b1-3)GalNAc
Method in brief: as §1

[20] = target: Fuc(a1-2)[Gal(a1-3)]Gal(b1-3)GalNAc(b1-3)Gal(a1-4)Gal(b1-4)Glc
Method in brief: as §1

[21] = target: Fuc(a1-2)[Gal(a1-3)]Gal(b1-3)GlcNAc
Method in brief: as §1

[22] = target: Fuc(a1-2)[Gal(a1-3)]Gal(b1-3)GlcNAc(b1-2)Man(a1-3)[Fuc(a1-2)[Gal(a1-3)]Gal(b1-3)GlcNAc(b1-2)Man(a1-6)]Man(b1-4)GlcNAc(b1-4)GlcNAc
Method in brief: as §1

[23] = target: Fuc(a1-2)[Gal(a1-3)]Gal(b1-3)GlcNAc(b1-2)Man(a1-3)[Fuc(a1-2)[Gal(a1-3)]Gal(b1-3)GlcNAc(b1-2)Man(a1-6)]Man(b1-4)GlcNAc(b1-4)[Fuc(a1-6)]GlcNAc
Method in brief: as §1

[24] = target: Fuc(a1-2)[Gal(a1-3)]Gal(b1-3)GlcNAc(b1-3)GalNAc
Method in brief: as §1

[25] = target: Fuc(a1-2)[Gal(a1-3)]Gal(b1-3)GlcNAc(b1-6)GalNAc
Method in brief: as §1

[26] = target: Fuc(a1-2)[Gal(a1-3)]Gal(b1-4)Glc
Method in brief: as §1

[27] = target: Fuc(a1-2)[Gal(a1-3)]Gal(b1-4)GlcNAc
Method in brief: as §1

[28] = target: Fuc(a1-2)[Gal(a1-3)]Gal(b1-4)GlcNAc(b1-2)Man
Method in brief: as §1

B1: SspB A3vp1 (Streptococcus gordonii), Q54186 (protein)
chain: MTNEADYQAKLAAYQTELARVQKANADAKATYEKAVEDNKAKNAAIKAENEEIKQRNAVAKTDYEAKLAKYEADLAKYKKEFAAYTAALAEAESKKKQDGYLSEPRSQSLNFKSEPNAIRTIDSSVHQYGQQELDALVKSWGISPTNPDRKKSRAYSYFNAINSNNTYAKLVLEKDKPVDVTYTGLKNSSFNGKKISKVVYTYTLKETGFNDGTKMTMFASSDPTVTAWYNDYFTSTNINVKVKFYDEEGQLMNLTGGLVNFSSLNRGNGSGAIDKDAIESVRNFNGRYIPISGSSIKIHENNSAYADSSNAEKSLGARWNTSEWDTTSSPNNWYGAIVGEITQSEISFNMASSKSGNIWFAFNSNINAIGVPTKPVAPTAPTQPMYETEKPLEPAPVAPSYENEPTPPVKTPDQPEPSKPAAALEHHHHHH
[1]
  glycan array binding signal (z-score): 1.6
[2]
  glycan array binding signal (z-score): 0.165
[3]
  glycan array binding signal (z-score): 0.239
[4]
  glycan array binding signal (z-score): -0.323
[5]
  glycan array binding signal (z-score): -0.465
[6]
  glycan array binding signal (z-score): 1.07
[7]
  glycan array binding signal (z-score): -0.855
[8]
  glycan array binding signal (z-score): -0.605
[9]
  glycan array binding signal (z-score): 0.172
[10]
  glycan array binding signal (z-score): 1.28
[11]
  glycan array binding signal (z-score): -0.322
[12]
  glycan array binding signal (z-score): -0.617
[13]
  glycan array binding signal (z-score): 2.73
[14]
  glycan array binding signal (z-score): -0.518
[15]
  glycan array binding signal (z-score): -0.407
[16]
  glycan array binding signal (z-score): -1.35
[17]
  glycan array binding signal (z-score): 0.671
Fuc(a1-2)Gal6S(b1-4)Glc
  glycan array binding signal (z-score): 0.055
[18]
  glycan array binding signal (z-score): 0.237
Fuc(a1-2)[Gal(a1-3)]Gal
  glycan array binding signal (z-score): -0.683
[19]
  glycan array binding signal (z-score): -0.89
[20]
  glycan array binding signal (z-score): -0.908
[21]
  glycan array binding signal (z-score): 0.206
[22]
  glycan array binding signal (z-score): 0.73
[23]
  glycan array binding signal (z-score): 0.631
[24]
  glycan array binding signal (z-score): 0.099
[25]
  glycan array binding signal (z-score): -0.454
[26]
  glycan array binding signal (z-score): -0.404
[27]
  glycan array binding signal (z-score): -0.404
[28]
  glycan array binding signal (z-score): -1.01
